Laboratory results reported in patent publication US20100004247A1, “COMBINATION COMPRISING A MEK INHIBITOR AND AN AURORA KINASE INHIBITOR 188” (AstraZeneca AB, priority 2007, published 2010).
For at least one compound, name, drawing or mass did not settle the structure.

System: human colorectal (SW620, HCT116, Colo205) and lung (A549, Calu-6) tumour xenografts
Assay: Tumour growth inhibition in a panel of human tumour xenografts
Format: in vivo
Conditions: SW620, HCT116, Colo205, A549, Calu-6 xenografts; with statistical significance

CCN(CCCOc1ccc2c(Nc3cc(CC(=O)Nc4cccc(F)c4)n[nH]3)ncnc2c1)CCOP(=O)(O)O [AZD1152, 2-{[3-({4-[(5-{2-[(3-fluorophenyl)amino]-2-oxoethyl}-1H-pyrazol-3-yl)amino]quinazolin-7-yl}oxy)propyl](ethyl)amino}ethyl dihydrogen phosphate]
inhibition of tumour growth in xenograft panel: inhibit tumour growth
